Test results published in PMC6753678, “Fueling Open Innovation for Malaria Transmission-Blocking Drugs: Hundreds of Molecules Targeting Early Parasite Mosquito Stages” (Frontiers in Microbiology, 2019).
Like-named read-outs stand apart in the source and are kept apart here.

What was measured:
[1] = tested on: P. falciparum late stage (stages IV-V) gametocytes; experiment: P. falciparum late stage gametocyte ATP depletion assay (Pf GC-ATP)
[2] = tested on: P. berghei ookinete development
[3] = tested on: P. falciparum female gametocytes; experiment: P. falciparum female gametogenesis assay (Pf FGAA); conditions: unified cytotox / Pf FGAA IC50; <10-fold selectivity red, >10-fold green
[4] = unified cytotox / IC50, <10-fold red, >10-fold green
[5] = unified cytotox / Pf GC-ATP IC50, red: <10-fold selectivity, green: >10-fold

SMILES | Assay tox ratio Pb ODA [2, 4] | Assay tox ratio Pb ODA [2] | further results
CN1c2ccc([N+](=O)[O-])cc2C(C)(C)C12C=Cc1cc(Br)cc([N+](=O)[O-])c1O2 (stereo not drawn) [TCMDC-124178] | 18.19 |  | Assay tox ratio Pf GC-ATP [1, 4]: 26.85
Cl.Cl.c1ccc2c(NCCCCCCNc3c4ccccc4nc4ccccc34)c3ccccc3nc2c1 [TCMDC-124285] | 5.05 |  | Assay tox ratio Pf GC-ATP [1, 4]: 30.67
Cl.N#Cc1c(F)cc(N2CCC(NCC[C@H](N)Cc3ccc(F)c(F)c3)CC2)cc1F [TCMDC-132121] |  |  | Assay tox ratio Pf FGAA [3]: 6.30
FC(F)c1nc2ccccc2n1-c1nc(N2CCOCC2)nc(N2CCOCC2)n1 [TCMDC-137004] |  |  | Assay tox ratio Pf GC-ATP [1, 5]: 0.29
CC(CO)(CO)NCc1cc2c3ccccc3c(CNC(C)(CO)CO)cc2c2ccccc12.CS(=O)(=O)O [TCMDC-137752] |  |  | Assay tox ratio Pf FGAA [3]: 1.66
Cl.c1ccc2c(c1)cc(CNCCCN1CCN(CCCNCc3cc4ccccc4c4ccccc34)CC1)c1ccccc12 [TCMDC-137914] |  |  | Assay tox ratio Pf GC-ATP [1, 5]: 12.34
CC(=O)c1ccc2nc[nH]c(=O)c2c1 [TCMDC-138172] |  | 7.43 | 
Cc1ccc2c(=O)c3cc(C)ccc3[nH]c2c1 [TCMDC-138194] |  | 293.83 | 
COc1ccc(Cn2c(Nc3cccc(C(F)(F)F)c3)nc3cc(C(=O)NC(C)C)cnc32)cc1Cl [TCMDC-138556] |  | 9.42 | 
Nc1nc(N)c2c(ccc3c2ccn3CCCC(F)(F)F)n1 [TCMDC-138622] | 0.06 |  | 
Nc1nc(N)c2c(ccc3c2ccn3CCCF)n1 [TCMDC-138623] | 0.58 |  | 
C=CC(C)C1OC(=O)c2cc(OC)cc(OC)c21 (stereo not drawn) [TCMDC-138676] | 2.06 |  | 
C=CCC1OC(=O)c2cc(OC)cc(OC)c21 (stereo not drawn) [TCMDC-138677] |  | 1.03 | 
CN1CCN(c2ccc(Nc3nccc(-c4cnn5ncccc45)n3)cc2Cl)CC1 [TCMDC-138688] |  | 25.93 | 
CC(=O)c1ccc(NC(=O)Nc2ccc(N(C)c3ccnc(Nc4cccc(CS(C)(=O)=O)c4)n3)cc2)cc1 [TCMDC-138736] |  | 10.45 | 
Cc1[nH]c(C)c(-c2ccc(Oc3ccc(OC(F)(F)F)cc3)cc2)c(=O)c1Br [TCMDC-138826] |  |  | Assay tox ratio Pb ODA (red: <10-fold selectivity; green: >10-fold) [2]: 9.61
Cc1ccc(Nc2nc3cc(N(C)c4ccnc(Nc5cccc(CCS(C)(=O)=O)c5)n4)ccc3n2C)cc1.O=C(O)C(F)(F)F [TCMDC-138853] |  | 1.76 | 
OCCc1ccc(Nc2nccc(-c3nnc4ccccn34)n2)cc1 [TCMDC-138924] |  | 253.06 | 
CCCOc1cc(OCCC)cc(-c2cc(=O)c3ccccc3[nH]2)c1 [TCMDC-138943] |  | 182.72 | 
COc1ccc2nc3cc(Cl)ccc3c(NCCN(C)C)c2c1 [TCMDC-139093] |  |  | Assay tox ratio Pb ODA (red: <10-fold selectivity; green: >10-fold) [2]: 7.20
CN1Cc2cc(NC(=O)/C=C/c3ccccc3Cl)ccc2C(C)(C)C1.Cl [TCMDC-139315] |  | 36.28 | 
O=c1cc(NCCCN(Cc2ccccc2)Cc2ccccc2)[nH]c2ccccc12 [TCMDC-139368] |  | 11.81 | 
CCOC(=O)[C@H](Cc1cc([N+](=O)[O-])c(Oc2ccc(OC)c(Cc3ccc(OC)c(C(C)C)c3)c2)c([N+](=O)[O-])c1)NC(=O)C(F)(F)F [TCMDC-139398] |  | 20.42 | 

SMILES | Assay tox ratio Pb ODA [2, 4] | Assay tox ratio Pb ODA [2] | further results
Cl.O=c1cc(NCCCNCc2sc(Br)c(Br)c2Br)[nH]c2ccccc12 [TCMDC-139647] |  | 17.65 | 
Cl.Oc1cc(-c2nc(-c3ccccc3)[nH]c2-c2ccncc2)ccc1Cl [TCMDC-139660] |  | 5.57 | 
CC(C)Nc1nc(NC2CCCCC2)nc(N2CCCCCCC2)n1 [TCMDC-139688] |  | 10.16 | 
COc1cc(NC(=O)Nc2ccc(Br)cc2C(=O)Nc2ccc(Br)cc2)cc(OC)c1OC [TCMDC-139733] |  | 15.68 | 
C=C[C@H]1CN(CCCCCCC)CC[C@H]1CC(=O)Nc1cnnc2ccc(OC)cc12.O=C(O)C(=O)O [TCMDC-139791] |  | 12.24 | 
COc1ccc(Cn2ccc3c4c(N)nc(N)nc4ccc32)cc1 [TCMDC-139862] | 0.0348 |  | 
CC(C)(C)CNCC(C)(C)c1nc(-c2ccc(Cl)c(O)c2)c(-c2ccncc2)[nH]1.Cl [TCMDC-140549] | 8.78 |  | 
COc1ccc2nccc([C@@H](O)CN3CCC(NCCOc4cc(C(F)(F)F)ccc4F)CC3)c2c1.O=C(O)C(=O)O [TCMDC-140658] | 0.00107 |  | 
COc1ccc2nccc([C@@H](O)CN3CCC(NCCOc4ccc(F)cc4Cl)CC3)c2c1.O=C(O)C(=O)O [TCMDC-140660] | 3.90 |  | 
COc1cc(-c2nc(C(C)(C)CN)[nH]c2-c2ccncc2)ccc1Br.Cl [TCMDC-140674] |  |  | Assay tox ratio Pb ODA (red: <10-fold selectivity; green: >10-fold) [2]: 30.11
CC(C)(CN)c1nc(-c2ccc(Br)c(O)c2)c(-c2ccncc2)[nH]1.Cl [TCMDC-140680] | 24.14 |  | 
COc1cccc(CNCC(C)(C)c2nc(-c3ccc(Cl)c(O)c3)c(-c3ccncc3)[nH]2)c1.Cl [TCMDC-140687] |  |  | Assay tox ratio Pb ODA (red: <10-fold selectivity; green: >10-fold) [2]: 1.34
COc1ccc2nccc([C@@H](O)CN3CCC(NCc4cc5ccc(C#N)cc5[nH]4)CC3)c2c1.O=C(O)C(=O)O [TCMDC-140696] | 0.82 |  | 
COc1ccc2nccc([C@@H](O)CN3CCC(NCc4cc5cccc6c5n(c4=O)CCC6)CC3)c2c1.O=C(O)C(=O)O [TCMDC-140735] |  | 4.72 | 
COc1ccc2nccc([C@@H](O)CN3CCC(NCc4cc5c(F)ccc(F)c5[nH]4)CC3)c2c1.O=C(O)C(=O)O [TCMDC-140739] | 5.31 |  | 
COc1ccc2nccc([C@@H](O)CN3CCC(NC(=O)c4ccc5cc[nH]c5c4)CC3)c2c1.CS(=O)(=O)O [TCMDC-140743] | 217.72 |  | 
COc1ccc2nccc([C@@H](O)CN3CCC(NCc4cc5c(F)ccc(F)c5[nH]4)CC3)c2n1.CS(=O)(=O)O [TCMDC-140749] |  |  | Assay tox ratio Pb ODA (red: <10-fold selectivity; green: >10-fold) [2]: 4.32
COc1ccc2nccc([C@@H](O)CN3CCC(NCc4cc5ccccc5nc4O)CC3)c2c1.Cl [TCMDC-140759] | 24.33 |  | 
O=C(NCc1ccco1)c1ccc(CN2CCN(C(c3ccccc3)c3ccccc3)CC2)cc1 [TCMDC-140763] |  | 35.36 | 
COc1ccc2nccc([C@@H](O)CN3CCC(NC(=O)c4cc5ccccc5[nH]4)CC3)c2c1.CS(=O)(=O)O [TCMDC-140780] | 212.13 |  | 
COc1ccc2nccc([C@@H](O)CN3CCC(NC(=O)c4cc5c(F)cc(F)cc5[nH]4)CC3)c2c1.CS(=O)(=O)O [TCMDC-140781] | 11.21 |  | 
COc1ccc2nccc([C@@H](O)CN3CCC(NCc4ccc5c(c4)NC(=O)CO5)CC3)c2c1.Cl [TCMDC-140793] |  |  | Assay tox ratio Pb ODA (red: <10-fold selectivity; green: >10-fold) [2]: 7.76
COc1ccc2nccc([C@@H](O)CN3CCC(NC(=O)/C=C/c4c[nH]c5c(C)cccc45)CC3)c2c1 [TCMDC-141000] | 27.00 |  | 

SMILES | Assay tox ratio Pb ODA [2, 4] | Assay tox ratio Pb ODA [2] | further results
CC(C)(CNC(=O)[C@H]1CCCCN1)c1nc(-c2ccc(Cl)c(O)c2)c(-c2ccncc2)[nH]1.Cl [TCMDC-141070] | 17.63 |  | 
Cl.NCC1(c2nc(-c3ccc(Cl)c(O)c3)c(-c3ccncc3)[nH]2)CCCCC1 [TCMDC-141154] | 29.18 |  | 
CC(C)(CN)c1cc(-c2ccc(Cl)c(O)c2)c(-c2ccncc2)o1.Cl [TCMDC-141334] | 11.04 |  | 
ON=C1CCc2cc(-c3cc(-c4ccc(OC5CCNCC5)cc4)oc3-c3ccncc3)ccc21 [TCMDC-141381] |  | 4.19 | 
CN(C)CCN(C)C(=O)c1cc(-c2ccncc2)c(-c2ccc(Cl)c(O)c2)o1.Cl [TCMDC-141393] |  | 30.73 | 
COc1ccc2nccc(NC(=O)C3(O)CCC(NCc4ccc5c(c4)NCCS5)CC3)c2n1.Cl (stereo not drawn) [TCMDC-141406] |  |  | Assay tox ratio Pb ODA (red: <10-fold selectivity; green: >10-fold) [2]: 69.90
O=C(Nc1ccc(Cl)cc1)c1cc(Cl)cc2nc(C(F)(F)F)[nH]c12 [TCMDC-141586] | 0.56 |  | 
CCN(CC)CCCNc1nccc(N(C)c2ccc(NC(=O)Nc3cc(C(F)(F)F)ccc3F)cc2)n1.O=C(O)C(F)(F)F [TCMDC-141634] |  | 0.31 | 
Cc1cc(F)ccc1-c1nc(NCC(O)CNCCc2ccccc2)nc2c1ccc(=O)n2-c1c(F)cccc1F.O=C(O)C(F)(F)F (stereo not drawn) [TCMDC-141784] | 3.02 |  | 
Cc1cc(F)ccc1-c1nc(NCCCNCCc2ccccc2)nc2c1ccc(=O)n2-c1c(F)cccc1F.O=C(O)C(F)(F)F [TCMDC-141804] | 16.60 |  | 
COc1ccc2ncc(Cl)c(CCN3CCC(NCc4ccc5c(n4)NC(=O)CS5)CC3)c2c1.Cl [TCMDC-141807] | 11.53 |  | 
COc1ccc2ncc(Cl)c(CCN3CCC(NCc4ccc5c(n4)NC(=O)CO5)CC3)c2c1.Cl [TCMDC-141808] |  |  | Assay tox ratio Pb ODA (red: <10-fold selectivity; green: >10-fold) [2]: 1.06
COc1ccc2nccc(N3CCC(CCNCc4ccc5c(n4)NC(=O)CS5)CC3)c2n1.Cl [TCMDC-141944] | 1.66 |  | 
COc1c(F)ccc2ncc(Cl)c(CCN3CCC(NCc4ccc5c(n4)NC(=O)CS5)CC3)c12.Cl [TCMDC-141955] | 12.63 |  | 
Cl.O=C1CSc2ccc(CNC3CCN(CCc4c(Cl)cnc5ccc(Cl)cc45)CC3)nc2N1 [TCMDC-141959] | 4.21 |  | 
Cl.O=C1CSc2ccc(CNC3CCN(CCc4c(Cl)cnc5ccc(F)cc45)CC3)nc2N1 [TCMDC-141960] | 12.78 |  | 
O=C(O)CCSSc1cccc[n+]1[O-] [TCMDC-141973] |  | 10.07 | 
Nc1nc(N)c2c(ccc3c2ccn3Cc2ccccc2)n1 [TCMDC-141977] | 0.51 |  | 
CCOc1ccc2[nH]c(C)cc(=NN=Cc3cccnc3)c2c1 [TCMDC-142047] |  | 3.35 | 
O=c1c(Br)ccccc1Br [TCMDC-142246] | 14.68 |  | 
CC1=CC(=O)[C@@H](O)[C@]2(C)[C@H]3[C@@]4(O)OC[C@@]35[C@@H](C[C@@H]12)OC(=O)C[C@H]5[C@@H](C)[C@H]4O [TCMDC-142261] |  | 479.32 | 
